The text below walks through data of US20240376163A1, “PEPTIDE FOR INHIBITING CALCINEURIN AND USE THEREOF” (Seoul National University R&DB Foundation, priority 2023, published 2024).

Amino acid sequences for entries named in this document (tags omitted).
UniProt Q9Y6J0: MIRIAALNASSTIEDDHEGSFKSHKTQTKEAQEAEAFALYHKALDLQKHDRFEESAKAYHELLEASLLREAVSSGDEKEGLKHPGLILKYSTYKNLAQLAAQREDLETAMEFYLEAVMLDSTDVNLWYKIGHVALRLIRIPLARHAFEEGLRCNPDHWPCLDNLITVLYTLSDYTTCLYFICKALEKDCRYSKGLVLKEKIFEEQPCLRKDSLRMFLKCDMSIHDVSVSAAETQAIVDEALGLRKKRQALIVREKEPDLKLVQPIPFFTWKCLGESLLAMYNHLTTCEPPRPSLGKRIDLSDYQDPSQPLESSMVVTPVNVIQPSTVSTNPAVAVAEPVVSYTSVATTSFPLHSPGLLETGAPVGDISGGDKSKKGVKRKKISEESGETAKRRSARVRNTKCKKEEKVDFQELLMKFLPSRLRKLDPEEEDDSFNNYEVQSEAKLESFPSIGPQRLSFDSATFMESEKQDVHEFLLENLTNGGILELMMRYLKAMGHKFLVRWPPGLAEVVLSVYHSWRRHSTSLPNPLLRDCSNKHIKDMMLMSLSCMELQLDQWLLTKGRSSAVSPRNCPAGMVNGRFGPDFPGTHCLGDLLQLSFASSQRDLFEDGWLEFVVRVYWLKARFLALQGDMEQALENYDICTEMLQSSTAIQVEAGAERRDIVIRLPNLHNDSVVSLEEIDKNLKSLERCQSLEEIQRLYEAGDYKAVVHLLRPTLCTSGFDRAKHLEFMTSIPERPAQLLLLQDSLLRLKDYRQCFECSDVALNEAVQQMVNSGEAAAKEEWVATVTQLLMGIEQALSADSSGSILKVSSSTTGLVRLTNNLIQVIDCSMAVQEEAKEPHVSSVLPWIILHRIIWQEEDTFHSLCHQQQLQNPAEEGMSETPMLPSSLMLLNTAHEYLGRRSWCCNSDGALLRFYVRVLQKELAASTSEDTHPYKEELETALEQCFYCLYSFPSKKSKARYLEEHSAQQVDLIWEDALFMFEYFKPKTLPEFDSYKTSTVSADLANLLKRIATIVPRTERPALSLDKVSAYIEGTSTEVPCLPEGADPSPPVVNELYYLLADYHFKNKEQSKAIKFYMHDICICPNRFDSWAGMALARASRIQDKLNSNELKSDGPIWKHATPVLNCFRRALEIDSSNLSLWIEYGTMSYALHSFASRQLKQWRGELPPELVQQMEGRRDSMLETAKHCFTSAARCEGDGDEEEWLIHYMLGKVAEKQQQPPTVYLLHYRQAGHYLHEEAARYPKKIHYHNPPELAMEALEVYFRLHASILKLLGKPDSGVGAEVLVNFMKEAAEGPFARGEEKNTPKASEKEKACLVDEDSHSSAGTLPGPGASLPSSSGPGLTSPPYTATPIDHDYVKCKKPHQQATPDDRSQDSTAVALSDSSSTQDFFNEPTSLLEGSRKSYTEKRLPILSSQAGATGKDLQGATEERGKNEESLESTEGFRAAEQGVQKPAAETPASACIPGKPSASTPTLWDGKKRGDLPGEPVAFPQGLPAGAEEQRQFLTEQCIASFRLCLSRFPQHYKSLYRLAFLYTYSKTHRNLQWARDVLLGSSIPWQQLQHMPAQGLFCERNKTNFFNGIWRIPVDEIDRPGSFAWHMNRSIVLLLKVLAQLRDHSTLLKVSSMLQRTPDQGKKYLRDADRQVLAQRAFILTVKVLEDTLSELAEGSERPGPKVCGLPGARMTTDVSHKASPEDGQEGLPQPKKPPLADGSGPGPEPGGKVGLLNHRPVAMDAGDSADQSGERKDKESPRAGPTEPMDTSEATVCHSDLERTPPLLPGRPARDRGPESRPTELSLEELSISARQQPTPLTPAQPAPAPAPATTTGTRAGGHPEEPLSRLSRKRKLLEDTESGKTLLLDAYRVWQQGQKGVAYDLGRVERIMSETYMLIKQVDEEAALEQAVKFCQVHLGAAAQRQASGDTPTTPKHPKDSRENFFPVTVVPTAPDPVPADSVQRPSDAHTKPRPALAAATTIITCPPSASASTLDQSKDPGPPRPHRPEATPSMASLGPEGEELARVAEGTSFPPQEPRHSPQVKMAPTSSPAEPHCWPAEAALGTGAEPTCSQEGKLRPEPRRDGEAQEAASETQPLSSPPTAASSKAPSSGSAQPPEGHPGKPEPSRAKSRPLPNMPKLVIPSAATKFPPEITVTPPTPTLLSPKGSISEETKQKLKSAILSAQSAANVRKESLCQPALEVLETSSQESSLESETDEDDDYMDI
UniProt Q16539: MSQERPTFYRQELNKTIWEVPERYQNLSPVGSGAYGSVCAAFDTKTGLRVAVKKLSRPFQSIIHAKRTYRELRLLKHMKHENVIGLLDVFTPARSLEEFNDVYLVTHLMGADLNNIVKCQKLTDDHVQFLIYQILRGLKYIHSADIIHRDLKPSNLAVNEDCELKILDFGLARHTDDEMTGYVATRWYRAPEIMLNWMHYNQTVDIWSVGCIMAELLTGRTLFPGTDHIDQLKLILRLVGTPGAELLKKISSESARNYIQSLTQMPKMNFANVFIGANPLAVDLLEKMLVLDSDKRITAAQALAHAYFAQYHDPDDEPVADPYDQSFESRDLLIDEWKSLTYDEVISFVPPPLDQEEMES

The assay addresses HA-CABIN1 (UniProt Q9Y6J0). Description: immunoprecipitation of Flag-MAPK and HA-CABIN1 in HEK293T cells.

These are yes or no findings as the source states them, for the method shown. Some binding calls cover weakened binding; strength is not graded here.

Consider “Flag-MAPK: p38a (from UniProt Q16539 1-360) (enzyme)”, for which the binding entry is “binds”.
